Substitutions are numbered along the chain they refer to. Results are given in words; binding and its absence hold for the method and conditions named. In cells and extracts the contact can be indirect. Some binding calls cover weakened binding; strength is not graded here. For part of these data: Tags and fused reporters may be left off the sequences shown.

For one assay, the target named is T1, Mip6-GFP (S. cerevisiae) (UniProt P38760).
T1 sequence: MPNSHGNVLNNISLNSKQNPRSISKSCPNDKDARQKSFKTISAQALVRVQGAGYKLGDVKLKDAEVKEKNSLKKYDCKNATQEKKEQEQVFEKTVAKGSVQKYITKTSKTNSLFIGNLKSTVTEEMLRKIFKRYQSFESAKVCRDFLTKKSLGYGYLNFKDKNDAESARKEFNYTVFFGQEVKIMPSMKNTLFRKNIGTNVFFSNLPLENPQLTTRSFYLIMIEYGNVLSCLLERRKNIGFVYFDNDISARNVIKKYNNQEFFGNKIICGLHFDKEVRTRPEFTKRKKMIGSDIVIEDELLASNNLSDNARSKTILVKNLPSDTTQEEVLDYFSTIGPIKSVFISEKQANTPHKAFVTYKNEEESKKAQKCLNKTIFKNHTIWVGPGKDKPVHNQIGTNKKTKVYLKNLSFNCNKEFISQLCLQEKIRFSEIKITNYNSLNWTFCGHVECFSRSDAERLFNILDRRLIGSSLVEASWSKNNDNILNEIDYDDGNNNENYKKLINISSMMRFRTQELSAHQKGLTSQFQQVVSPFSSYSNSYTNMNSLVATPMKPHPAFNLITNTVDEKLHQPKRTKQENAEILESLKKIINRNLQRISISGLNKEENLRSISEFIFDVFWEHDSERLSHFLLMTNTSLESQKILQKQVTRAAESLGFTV
Briefly: co-IP; GFP-Trap beads (printed GFT-TRAP, ChromoTek) on yeast lysate, 1 h at 4°C; lysis buffer 10 mM Tris-HCl pH 7.5, 150 mM NaCl, 0.5 mM EDTA, 0.5% NP-40; cells under optimal conditions or after heat shock at 39°C for 20 min; Western blot with α-GFP and α-TAP. (In general: Immunoblotting shows a protein as a band on a membrane.)

The target of assay [1] is T2, Mip6W442A-GFP (S. cerevisiae) (UniProt P38760).
T2 sequence: T1 sequence with W442A
Described as above.

For another assay, the target named is T3, Mip6-TAP (S. cerevisiae) (UniProt P38760).
T3 sequence: T1 sequence
Nature of the assay: pull-down; Mip6-TAP pulldown; method and way of identification not described in the text (Supplementary File 4).

B1: Rpd3-TAP (enzyme, UniProt P32561 1-433)
chain: MVYEATPFDPITVKPSDKRRVAYFYDADVGNYAYGAGHPMKPHRIRMAHSLIMNYGLYKKMEIYRAKPATKQEMCQFHTDEYIDFLSRVTPDNLEMFKRESVKFNVGDDCPVFDGLYEYCSISGGGSMEGAARLNRGKCDVAVNYAGGLHHAKKSEASGFCYLNDIVLGIIELLRYHPRVLYIDIDVHHGDGVEEAFYTTDRVMTCSFHKYGEFFPGTGELRDIGVGAGKNYAVNVPLRDGIDDATYRSVFEPVIKKIMEWYQPSAVVLQCGGDSLSGDRLGCFNLSMEGHANCVNYVKSFGIPMMVVGGGGYTMRNVARTWCFETGLLNNVVLDKDLPYNEYYEYYGPDYKLSVRPSNMFNVNTPEYLDKVMTNIFANLENTKYAPSVQLNHTPRDAEDLGDVEEDSAEAKDTKGGSQYARDLHVEHDNEFY
For the molecule B1, the binding result (in the assay with Mip6-GFP (S. cerevisiae); in assay [1]) was “binds” each time.

B2: Rpd3 (enzyme, UniProt P32561 1-433)
chain: B1 chain
B2: the binding result in the assay with Mip6-TAP (S. cerevisiae) was “binds”.

For the origin of these results see paper PMC12341946.
